No constants are given. Whether binding was seen depends on the method and setting. Binding seen in cells or lysates may run through a third protein. Some results given as binding are weak or reduced against the parent protein; the word gives no strength. For some assays here: Tags and fused reporters may be left off the sequences shown. One block for each binder: values may come before it.
How the values were obtained:
[1] = target: Flag-tagged ATP6V0D2 (ATPase H+ transporting V0 subunit d2) (UniProt Q8N8Y2); experiment: co-IP; 786O cells stably expressing flag-ATP6V0D2 immunoprecipitated by beads; blots for endogenous VPS41, VPS39 and RAB7
[2] = target: FLAG-tagged ATP6V0D2 (in 293T cells) (UniProt Q8N8Y2); experiment: co-IP; 293T cells cotransfected with FLAG-tagged ATP6V0D2, His-tagged RAB7 and His-tagged VPS41

Chains of the proteins cited; added tags and fusions are not shown.
UniProt Q8N8Y2: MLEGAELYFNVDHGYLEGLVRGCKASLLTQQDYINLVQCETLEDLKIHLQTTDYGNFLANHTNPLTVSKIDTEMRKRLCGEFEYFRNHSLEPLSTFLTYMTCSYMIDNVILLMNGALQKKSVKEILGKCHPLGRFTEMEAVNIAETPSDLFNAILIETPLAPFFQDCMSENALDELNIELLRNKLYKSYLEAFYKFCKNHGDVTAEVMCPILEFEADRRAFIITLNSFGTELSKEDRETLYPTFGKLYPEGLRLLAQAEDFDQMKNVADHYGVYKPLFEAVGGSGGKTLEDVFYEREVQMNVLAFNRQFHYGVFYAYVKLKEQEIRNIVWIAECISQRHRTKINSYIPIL

binding [1]: binds
B1: VPS41 (endogenous) (protein, UniProt P49754 1-854)
chain: MAEAEEQETGSLEESTDESEEEESEEEPKLKYERLSNGVTEILQKDAASCMTVHDKFLALGTHYGKVYLLDVQGNITQKFDVSPVKINQISLDESGEHMGVCSEDGKVQVFGLYSGEEFHETFDCPIKIIAVHPHFVRSSCKQFVTGGKKLLLFERSWMNRWKSAVLHEGEGNIRSVKWRGHLIAWANNMGVKIFDIISKQRITNVPRDDISLRPDMYPCSLCWKDNVTLIIGWGTSVKVCSVKERHASEMRDLPSRYVEIVSQFETEFYISGLAPLCDQLVVLSYVKEISEKTEREYCARPRLDIIQPLSETCEEISSDALTVRGFQENECRDYHLEYSEGESLFYIVSPRDVVVAKERDQDDHIDWLLEKKKYEEALMAAEISQKNIKRHKILDIGLAYINHLVERGDYDIAARKCQKILGKNAALWEYEVYKFKEIGQLKAISPYLPRGDPVLKPLIYEMILHEFLESDYEGFATLIREWPGDLYNNSVIVQAVRDHLKKDSQNKTLLKTLAELYTYDKNYGNALEIYLTLRHKDVFQLIHKHNLFSSIKDKIVLLMDFDSEKAVDMLLDNEDKISIKKVVEELEDRPELQHVYLHKLFKRDHHKGQRYHEKQISLYAEYDRPNLLPFLRDSTHCPLEKALEICQQRNFVEETVYLLSRMGNSRSALKMIMEELHDVDKAIEFAKEQDDGELWEDLILYSIDKPPFITGLLNNIGTHVDPILLIHRIKEGMEIPNLRDSLVKILQDYNLQILLREGCKKILVADSLSLLKKMHRTQMKGVLVDEENICESCLSPILPSDAAKPFSVVVFHCRHMFHKECLPMPSMNSAAQFCNICSAKNRGPGSAILEMKK

binding [2]: binds
B2: His-tagged VPS41 (in 293T cells) (protein, UniProt P49754 1-854)
chain: B1 chain
